Test results: the supplement of paper PMC6411743
± gives the standard deviation of the averaged measurements. The list shows a part of the results, in another mix than the full data. Small differences around the control level are noise.

By UniProt entry, the sequences of proteins in these tests, tags left out. Where a name states a change or a piece, a line headed by the entry shows the natural chain unless it says otherwise.
UniProt P51648: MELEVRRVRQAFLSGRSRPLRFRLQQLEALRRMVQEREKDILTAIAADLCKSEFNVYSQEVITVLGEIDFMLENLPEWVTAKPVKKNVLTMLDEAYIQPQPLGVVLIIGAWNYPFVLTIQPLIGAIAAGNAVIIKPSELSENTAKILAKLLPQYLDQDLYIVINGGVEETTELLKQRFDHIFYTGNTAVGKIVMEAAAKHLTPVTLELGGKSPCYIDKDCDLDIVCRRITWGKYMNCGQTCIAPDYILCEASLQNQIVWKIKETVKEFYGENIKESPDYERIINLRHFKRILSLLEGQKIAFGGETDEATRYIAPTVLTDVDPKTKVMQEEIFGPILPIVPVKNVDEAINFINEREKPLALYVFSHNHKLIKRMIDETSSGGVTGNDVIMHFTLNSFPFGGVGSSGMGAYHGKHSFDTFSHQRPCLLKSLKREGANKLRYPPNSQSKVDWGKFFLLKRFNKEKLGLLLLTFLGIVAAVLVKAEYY
UniProt P49848, whole entry: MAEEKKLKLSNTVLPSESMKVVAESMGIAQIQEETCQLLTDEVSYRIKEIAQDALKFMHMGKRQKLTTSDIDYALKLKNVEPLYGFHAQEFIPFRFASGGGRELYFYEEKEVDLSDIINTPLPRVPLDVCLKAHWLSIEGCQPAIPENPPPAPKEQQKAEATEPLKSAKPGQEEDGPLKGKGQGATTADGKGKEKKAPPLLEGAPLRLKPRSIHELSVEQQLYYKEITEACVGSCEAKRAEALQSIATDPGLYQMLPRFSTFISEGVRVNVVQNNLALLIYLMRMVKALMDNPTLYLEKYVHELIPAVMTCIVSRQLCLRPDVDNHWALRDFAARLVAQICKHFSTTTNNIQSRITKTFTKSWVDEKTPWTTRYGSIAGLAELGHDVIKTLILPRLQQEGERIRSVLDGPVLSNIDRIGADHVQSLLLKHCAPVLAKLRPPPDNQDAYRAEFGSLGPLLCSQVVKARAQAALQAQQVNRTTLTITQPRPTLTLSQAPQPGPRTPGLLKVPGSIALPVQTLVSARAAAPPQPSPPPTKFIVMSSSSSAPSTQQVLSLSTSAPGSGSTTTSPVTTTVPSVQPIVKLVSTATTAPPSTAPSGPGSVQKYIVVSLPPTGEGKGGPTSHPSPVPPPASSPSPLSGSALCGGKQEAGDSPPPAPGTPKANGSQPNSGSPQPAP
UniProt H0UI80: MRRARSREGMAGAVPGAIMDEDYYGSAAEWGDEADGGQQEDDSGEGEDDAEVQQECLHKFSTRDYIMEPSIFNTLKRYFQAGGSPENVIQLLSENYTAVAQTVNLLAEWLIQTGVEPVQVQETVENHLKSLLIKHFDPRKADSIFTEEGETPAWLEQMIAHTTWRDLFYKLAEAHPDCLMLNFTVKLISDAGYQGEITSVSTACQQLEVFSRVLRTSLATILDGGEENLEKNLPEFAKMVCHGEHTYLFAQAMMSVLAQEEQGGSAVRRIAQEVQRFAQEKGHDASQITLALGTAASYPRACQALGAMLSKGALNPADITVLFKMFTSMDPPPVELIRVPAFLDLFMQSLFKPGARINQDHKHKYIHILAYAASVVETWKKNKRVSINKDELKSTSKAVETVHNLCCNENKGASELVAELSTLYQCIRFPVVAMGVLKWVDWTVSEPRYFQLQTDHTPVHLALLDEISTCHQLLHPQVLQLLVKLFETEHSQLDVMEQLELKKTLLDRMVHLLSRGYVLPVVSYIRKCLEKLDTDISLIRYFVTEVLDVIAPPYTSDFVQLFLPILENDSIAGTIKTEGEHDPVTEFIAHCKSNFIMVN
UniProt Q6AI12: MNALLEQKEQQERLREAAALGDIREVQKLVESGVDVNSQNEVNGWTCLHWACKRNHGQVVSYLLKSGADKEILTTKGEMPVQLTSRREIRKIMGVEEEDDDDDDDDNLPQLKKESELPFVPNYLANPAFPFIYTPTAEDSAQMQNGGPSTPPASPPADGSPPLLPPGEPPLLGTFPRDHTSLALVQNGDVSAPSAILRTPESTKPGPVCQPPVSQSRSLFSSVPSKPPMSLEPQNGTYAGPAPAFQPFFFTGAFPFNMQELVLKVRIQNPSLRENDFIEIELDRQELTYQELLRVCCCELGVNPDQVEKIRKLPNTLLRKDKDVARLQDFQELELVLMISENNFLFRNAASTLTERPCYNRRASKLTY
UniProt Q8NBT2: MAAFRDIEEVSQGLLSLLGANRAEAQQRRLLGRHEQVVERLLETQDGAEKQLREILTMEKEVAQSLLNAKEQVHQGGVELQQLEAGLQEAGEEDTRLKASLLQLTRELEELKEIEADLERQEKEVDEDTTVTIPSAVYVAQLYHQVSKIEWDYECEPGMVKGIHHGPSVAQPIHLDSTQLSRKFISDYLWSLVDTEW
UniProt Q96EP5: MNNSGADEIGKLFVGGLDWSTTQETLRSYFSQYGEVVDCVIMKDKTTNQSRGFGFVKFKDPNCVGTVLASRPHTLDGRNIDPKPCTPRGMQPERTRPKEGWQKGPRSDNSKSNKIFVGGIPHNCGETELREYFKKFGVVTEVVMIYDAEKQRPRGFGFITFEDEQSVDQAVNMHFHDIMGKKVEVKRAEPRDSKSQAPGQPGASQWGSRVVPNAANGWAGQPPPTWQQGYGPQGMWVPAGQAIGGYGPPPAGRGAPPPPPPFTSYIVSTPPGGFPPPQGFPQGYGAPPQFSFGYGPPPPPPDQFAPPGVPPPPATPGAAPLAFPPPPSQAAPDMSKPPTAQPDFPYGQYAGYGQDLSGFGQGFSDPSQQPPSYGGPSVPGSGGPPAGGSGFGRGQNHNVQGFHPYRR
UniProt Q9ULV3: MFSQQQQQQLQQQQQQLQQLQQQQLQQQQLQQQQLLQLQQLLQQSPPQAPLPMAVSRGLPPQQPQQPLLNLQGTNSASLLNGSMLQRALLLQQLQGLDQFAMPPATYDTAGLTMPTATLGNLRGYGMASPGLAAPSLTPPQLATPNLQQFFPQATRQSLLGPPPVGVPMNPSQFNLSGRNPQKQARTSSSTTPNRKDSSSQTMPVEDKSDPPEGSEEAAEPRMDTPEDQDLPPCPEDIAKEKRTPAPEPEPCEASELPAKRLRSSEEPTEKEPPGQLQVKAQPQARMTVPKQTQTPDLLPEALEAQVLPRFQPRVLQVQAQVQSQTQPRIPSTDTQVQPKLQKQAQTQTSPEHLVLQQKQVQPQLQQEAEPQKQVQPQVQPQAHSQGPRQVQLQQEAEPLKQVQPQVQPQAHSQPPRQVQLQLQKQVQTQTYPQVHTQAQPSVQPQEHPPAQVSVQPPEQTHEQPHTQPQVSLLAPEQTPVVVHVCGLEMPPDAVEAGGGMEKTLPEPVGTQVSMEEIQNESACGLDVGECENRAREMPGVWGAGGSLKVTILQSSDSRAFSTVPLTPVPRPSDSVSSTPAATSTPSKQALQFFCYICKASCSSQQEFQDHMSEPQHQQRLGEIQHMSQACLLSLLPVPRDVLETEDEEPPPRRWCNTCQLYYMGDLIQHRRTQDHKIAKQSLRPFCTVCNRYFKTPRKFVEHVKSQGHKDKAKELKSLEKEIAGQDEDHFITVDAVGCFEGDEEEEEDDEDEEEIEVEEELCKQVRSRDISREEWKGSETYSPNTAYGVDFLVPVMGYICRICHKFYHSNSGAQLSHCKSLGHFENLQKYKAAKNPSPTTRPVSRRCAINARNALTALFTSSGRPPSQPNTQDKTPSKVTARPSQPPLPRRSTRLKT
UniProt O15417: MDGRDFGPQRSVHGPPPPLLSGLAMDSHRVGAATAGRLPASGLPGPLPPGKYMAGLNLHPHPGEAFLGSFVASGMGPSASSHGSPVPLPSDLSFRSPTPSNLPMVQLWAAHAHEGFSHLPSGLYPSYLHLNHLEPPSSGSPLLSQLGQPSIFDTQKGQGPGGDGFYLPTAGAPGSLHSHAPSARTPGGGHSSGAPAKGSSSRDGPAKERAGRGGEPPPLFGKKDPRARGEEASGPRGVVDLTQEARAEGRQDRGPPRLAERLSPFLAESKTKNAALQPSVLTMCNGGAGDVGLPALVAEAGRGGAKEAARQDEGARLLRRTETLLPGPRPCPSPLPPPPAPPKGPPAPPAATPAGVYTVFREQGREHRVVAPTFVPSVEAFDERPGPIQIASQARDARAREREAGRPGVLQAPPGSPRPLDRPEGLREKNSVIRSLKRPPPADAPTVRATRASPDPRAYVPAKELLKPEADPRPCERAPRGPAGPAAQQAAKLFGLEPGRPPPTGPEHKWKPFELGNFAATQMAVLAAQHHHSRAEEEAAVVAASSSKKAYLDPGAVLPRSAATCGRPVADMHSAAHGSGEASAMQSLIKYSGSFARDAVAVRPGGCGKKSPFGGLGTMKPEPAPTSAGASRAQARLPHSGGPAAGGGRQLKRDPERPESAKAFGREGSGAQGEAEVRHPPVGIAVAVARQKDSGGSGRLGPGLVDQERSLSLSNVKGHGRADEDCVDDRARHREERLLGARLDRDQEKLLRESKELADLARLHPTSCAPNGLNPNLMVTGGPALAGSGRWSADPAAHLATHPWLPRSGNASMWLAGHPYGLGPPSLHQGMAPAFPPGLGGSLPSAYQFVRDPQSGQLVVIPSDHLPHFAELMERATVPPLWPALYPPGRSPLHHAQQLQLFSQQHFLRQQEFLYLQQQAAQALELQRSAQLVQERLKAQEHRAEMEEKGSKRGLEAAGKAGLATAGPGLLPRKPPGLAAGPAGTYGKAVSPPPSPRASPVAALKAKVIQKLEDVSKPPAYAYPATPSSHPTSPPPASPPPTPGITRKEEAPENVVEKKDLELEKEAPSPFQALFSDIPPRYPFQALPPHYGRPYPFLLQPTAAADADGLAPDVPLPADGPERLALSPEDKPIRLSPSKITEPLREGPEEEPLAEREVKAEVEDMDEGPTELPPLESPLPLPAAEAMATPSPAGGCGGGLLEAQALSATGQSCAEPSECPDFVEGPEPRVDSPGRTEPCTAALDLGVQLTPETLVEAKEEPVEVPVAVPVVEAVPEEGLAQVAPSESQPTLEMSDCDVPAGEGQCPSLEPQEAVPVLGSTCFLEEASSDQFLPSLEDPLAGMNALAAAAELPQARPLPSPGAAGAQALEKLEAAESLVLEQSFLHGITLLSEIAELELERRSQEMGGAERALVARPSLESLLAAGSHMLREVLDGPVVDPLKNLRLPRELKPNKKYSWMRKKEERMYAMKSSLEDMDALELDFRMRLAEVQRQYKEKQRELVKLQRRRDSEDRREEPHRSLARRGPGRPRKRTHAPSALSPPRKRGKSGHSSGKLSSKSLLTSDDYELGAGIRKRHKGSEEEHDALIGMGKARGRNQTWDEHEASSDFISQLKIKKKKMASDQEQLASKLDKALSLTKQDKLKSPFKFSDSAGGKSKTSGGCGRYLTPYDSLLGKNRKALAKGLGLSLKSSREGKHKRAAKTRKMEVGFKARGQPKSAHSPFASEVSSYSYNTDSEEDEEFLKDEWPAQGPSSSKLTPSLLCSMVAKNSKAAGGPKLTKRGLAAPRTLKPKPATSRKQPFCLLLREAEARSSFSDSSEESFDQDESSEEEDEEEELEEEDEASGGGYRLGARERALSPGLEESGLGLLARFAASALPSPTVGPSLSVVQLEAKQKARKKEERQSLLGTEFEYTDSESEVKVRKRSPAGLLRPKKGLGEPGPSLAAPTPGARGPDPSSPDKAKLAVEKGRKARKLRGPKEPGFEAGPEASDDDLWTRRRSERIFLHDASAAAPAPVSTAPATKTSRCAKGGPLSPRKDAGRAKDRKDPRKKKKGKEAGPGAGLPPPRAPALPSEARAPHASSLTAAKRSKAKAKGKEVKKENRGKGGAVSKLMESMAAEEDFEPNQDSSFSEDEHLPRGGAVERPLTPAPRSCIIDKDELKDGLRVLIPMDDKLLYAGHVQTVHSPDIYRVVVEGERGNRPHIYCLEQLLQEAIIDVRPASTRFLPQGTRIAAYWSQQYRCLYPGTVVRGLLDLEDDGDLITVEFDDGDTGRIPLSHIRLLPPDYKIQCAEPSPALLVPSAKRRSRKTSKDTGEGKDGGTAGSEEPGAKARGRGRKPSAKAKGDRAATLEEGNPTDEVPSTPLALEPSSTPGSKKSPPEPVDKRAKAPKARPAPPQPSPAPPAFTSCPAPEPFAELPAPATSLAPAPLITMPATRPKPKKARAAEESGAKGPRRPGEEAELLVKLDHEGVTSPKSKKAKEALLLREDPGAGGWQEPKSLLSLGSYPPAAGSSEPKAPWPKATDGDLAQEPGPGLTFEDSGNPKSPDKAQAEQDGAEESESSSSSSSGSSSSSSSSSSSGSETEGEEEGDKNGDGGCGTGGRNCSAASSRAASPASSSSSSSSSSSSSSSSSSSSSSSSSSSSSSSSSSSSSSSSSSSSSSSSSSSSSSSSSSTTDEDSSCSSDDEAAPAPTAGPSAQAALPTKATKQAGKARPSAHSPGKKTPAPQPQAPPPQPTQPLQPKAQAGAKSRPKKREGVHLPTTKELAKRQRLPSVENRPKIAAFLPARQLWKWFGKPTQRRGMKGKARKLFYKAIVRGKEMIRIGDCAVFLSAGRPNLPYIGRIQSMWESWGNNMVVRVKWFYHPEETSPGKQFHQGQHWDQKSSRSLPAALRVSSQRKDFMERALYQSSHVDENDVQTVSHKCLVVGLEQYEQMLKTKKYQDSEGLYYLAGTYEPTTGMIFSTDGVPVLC

Compound: Nc1ncnc2c1ncn2[C@@H]1O[C@H](COP(=O)(O)OP(=O)(O)OP(=O)(O)O)[C@@H](O)[C@H]1O [adenosine triphosphate]
Experiment: NP40-soluble protein abundance relative to vehicle (solubility fold change) (ratio); higher = more soluble protein in presence of ATP
Procedure, shortened: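 Each value is a fold change relative to the detergent-processed vehicle, calculated per replicate from vsn-normalised intensities. Jurkat crude lysate received eight concentrations (0.1 to 10 mM) for 10 min at room temperature and 3 min at 37 °C, then was solubilised in 0.8% NP40 with benzonase (60 min, 4 °C). The ultracentrifuged supernatant was TMT-labelled and run by LC-MS/MS in three independent experiments.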

| Target | NP40-soluble protein abundance (concentration: 0.1mM) | NP40-soluble protein abundance (concentration: 0.5mM) |
| --- | --- | --- |
| J3QRD1 and related entries (UniProt P51648) | 1.03 ± 0.07 | 1.01 ± 0.015 |
| J3KR72 and related entries (UniProt P49848) | 1.01 ± 0.045 | 1.09 ± 0.1 |
| M0QYZ2 and related entries (UniProt P53680) | 1.02 ± 0.089 | 1.08 ± 0.092 |
| I3L4X7 and related entries (UniProt Q13227) | 0.97 ± 0.058 | 0.968 ± 0.018 |
| J3KNF4 and related entries (UniProt O14618) | 1.01 ± 0.057 | 0.974 ± 0.044 |
| G8JL98 and related entries (UniProt Q13569) | 1.01 ± 0.029 | 1.06 ± 0.058 |
| H0YKW3 and related entries (UniProt Q9H079) | 0.954 ± 0.049 | 0.925 ± 0.02 |
| J3KS22 and related entries (UniProt Q7Z4W1) | 0.991 ± 0.053 | 0.977 ± 0.02 |
| H0YJI2 and related entries (UniProt Q15643) | 0.978 ± 0.033 | 0.986 ± 0.034 |
| K7ESN3 and related entries (UniProt Q8N2G8) | 0.997 ± 0.17 | 1.04 ± 0.095 |
| K7ERT1 and related entries (UniProt O00273) | 1.01 ± 0.041 | 0.994 ± 0.035 |
| H0UI80 and related entries (UniProt X6RLT1+Q8IXH7+H0UI80) | 0.965 ± 0.033 | 0.96 ± 0.085 |
| H0Y860 and related entries (UniProt Q9P246) | 1.07 ± 0.079 | 1.09 ± 0.043 |
| H3BP20 and related entries (UniProt P06865) | 0.999 ± 0.061 | 0.991 ± 0.013 |
| L0R819 (UniProt Q9NWL6) | 0.957 ± 0.15 | 0.913 ± 0.13 |
| J3KQ48 and related entries (UniProt Q9Y3E5) | 1.05 ± 0.0045 | 1.02 ± 0.03 |
| H0YCX2 and related entries (UniProt Q96PV7) | 1.05 ± 0.075 | 1.11 ± 0.2 |
| I3L4B6 and related entries (UniProt Q67FW5) | 1.04 ± 0.082 | 1.072 ± 0.0035 |
| H0YM31 and related entries (UniProt Q16822) | 1.04 ± 0.069 | 1.01 ± 0.065 |
| H3BRQ0 and related entries (UniProt Q96CD2) | 0.987 ± 0.072 | 0.967 ± 0.033 |
| J3QT87 and related entries (UniProt Q96SW2) | 0.954 ± 0.092 | 0.92 ± 0.074 |
| K7ERW4 and related entries (UniProt Q6AI12) | 0.986 ± 0.24 | 0.986 ± 0.23 |
| J3KMZ7 and related entries (UniProt Q9H0H0) | 1.01 ± 0.1 | 1.07 ± 0.13 |
| H7BYJ3 and related entries (UniProt O14578) | 1.015 ± 0.0059 | 1.05 ± 0.042 |
| M0QX46 and related entries (UniProt Q6UUV9) | 0.994 ± 0.033 | 1.006 ± 0.0053 |
| H9KV77 and related entries (UniProt Q9NQ92) | 1.02 ± 0.1 | 0.977 ± 0.14 |

Taken from above:
NP40-soluble protein abundance (concentration: 0.1mM), H0UI80 and related entries (UniProt X6RLT1+Q8IXH7+H0UI80) is entered as 0.965 ± 0.033
NP40-soluble protein abundance (concentration: 0.1mM), I3L4X7 and related entries (UniProt Q13227) is entered as 0.97 ± 0.058
NP40-soluble protein abundance (concentration: 0.1mM), G8JL98 and related entries (UniProt Q13569) is entered as 1.01 ± 0.029
NP40-soluble protein abundance (concentration: 0.1mM), J3QRD1 and related entries (UniProt P51648) is entered as 1.03 ± 0.07
NP40-soluble protein abundance (concentration: 0.5mM), K7ERT1 and related entries (UniProt O00273) is entered as 0.994 ± 0.035

Carrying on:

| Target | NP40-soluble protein abundance (concentration: 0.1mM) | NP40-soluble protein abundance (concentration: 0.5mM) |
| --- | --- | --- |
| H0Y612 and related entries (UniProt Q9UPN9) | 0.975 ± 0.018 | 1.01 ± 0.036 |
| H0YIS7 and related entries (UniProt Q8IXM2+H0YIS7) | 0.883 ± 0.2 | 0.868 ± 0.23 |
| H0Y4B0 and related entries (UniProt O43414) | 1.09 ± 0.086 | 1.04 ± 0.05 |
| I3L2J0 (UniProt Q96RK0) | 0.949 ± 0.037 | 0.996 ± 0.05 |
| K7EIU8 and related entries (UniProt Q13485) | 0.998 ± 0.031 | 1.01 ± 0.078 |
| K7ENQ8 and related entries (UniProt Q15438) | 1.04 ± 0.088 | 1.02 ± 0.059 |
| K7EIY4 and related entries (UniProt O60499) | 0.981 ± 0.041 | 0.975 ± 0.06 |
| H0YLN8 and related entries (UniProt Q96QT4) | 1.038 ± 0.0011 | 1.07 ± 0.063 |
| I3L121 and related entries (UniProt Q96AJ1) | 1.04 ± 0.074 | 1.05 ± 0.031 |
| K7EJD2 and related entries (UniProt Q9Y5B0) | 0.999 ± 0.025 | 1 ± 0.07 |
| J3QTA2 and related entries (UniProt Q99933) | 1.08 ± 0.074 | 1.04 ± 0.086 |
| H3BUJ7 and related entries (UniProt Q66K89) | 1.04 ± 0.095 | 1.03 ± 0.017 |
| J3KR97 and related entries (UniProt Q9BTW9) | 1.02 ± 0.079 | 0.988 ± 0.022 |
| H7C3H7 and related entries (UniProt Q12873) | 1.09 ± 0.011 | 1.14 ± 0.059 |
| K7EJC2 and related entries (UniProt Q9P107) | 1.04 ± 0.043 | 1.02 ± 0.022 |
| H0YA52 and related entries (UniProt Q9H0N5) | 0.968 ± 0.06 | 0.962 ± 0.12 |
| I3L4I4 and related entries (UniProt O75674) | 0.873 ± 0.027 | 0.925 ± 0.025 |
| J3QQK6 and related entries (UniProt P02686) | 0.909 ± 0.089 | 0.788 ± 0.1 |
| H7BYT1 and related entries (UniProt P48730) | 1.04 ± 0.093 | 1.14 ± 0.18 |
| H7C1U8 and related entries (UniProt Q9BUR5) | 0.968 ± 0.027 | 0.909 ± 0.068 |
| K7EM91 and related entries (UniProt O43291) | 0.971 ± 0.035 | 0.98 ± 0.11 |
| H7BXF4 and related entries (UniProt Q9NXE4) | 1.04 ± 0.14 | 1.04 ± 0.1 |
| UniProt I3L0E3 | 0.961 ± 0.061 | 0.951 ± 0.035 |
| H7BXF5 and related entries (UniProt Q9H0E3) | 0.995 ± 0.035 | 1.01 ± 0.042 |
| H3BNF9 and related entries (UniProt Q9Y2V0) | 0.9769 ± 0.0047 | 0.9806 ± 0.0061 |
| I3L112 and related entries (UniProt P52429) | 0.987 ± 0.021 | 0.904 ± 0.057 |

| Target | NP40-soluble protein abundance (concentration: 0.1mM) | NP40-soluble protein abundance (concentration: 0.5mM) |
| --- | --- | --- |
| J3QSH4 and related entries (UniProt Q14119) | 0.996 ± 0.045 | 0.994 ± 0.058 |
| H0Y6A0 and related entries (UniProt Q9NP61) | 0.988 ± 0.033 | 0.986 ± 0.031 |
| J3KQJ1 and related entries (UniProt Q8NBJ7) | 1.011 ± 0.01 | 0.989 ± 0.031 |
| K7ER53 and related entries (UniProt O95644) | 0.987 ± 0.096 | 1.04 ± 0.07 |
| J3KQ32 and related entries (UniProt Q9NTK5) | 1.03 ± 0.12 | 1.06 ± 0.077 |
| H3BMM9 and related entries (UniProt Q15287) | 1.01 ± 0.17 | 1.3 ± 0.18 |
| J3QK89 and related entries (UniProt Q8IWX8) | 1.03 ± 0.038 | 1.1 ± 0.049 |
| H7C5I3 and related entries (UniProt P35236) | 1.02 ± 0.04 | 1.03 ± 0.017 |
| K7EQT1 and related entries (UniProt Q9UM11) | 0.969 ± 0.092 | 0.975 ± 0.15 |
| H3BPU4 and related entries (UniProt Q9UGJ1) | 1.03 ± 0.011 | 1.13 ± 0.14 |
| K7ES11 and related entries (UniProt Q9C0C9) | 0.972 ± 0.018 | 1 ± 0.031 |
| H3BP16 and related entries (UniProt Q9NVX0) | 0.979 ± 0.059 | 1.02 ± 0.036 |
| K7EMX1 and related entries (UniProt Q8NBT2) | 0.94 ± 0.099 | 0.935 ± 0.079 |
| K7EQ55 and related entries (UniProt Q96EP5) | 0.995 ± 0.028 | 1.01 ± 0.029 |
| H0Y5D5 and related entries (UniProt Q9ULV3) | 0.972 ± 0.03 | 0.971 ± 0.042 |
| J3KNZ9 (UniProt Q9HAH7) | 1.05 ± 0.08 | 1.09 ± 0.22 |
| H0Y2S9 and related entries (UniProt Q6WCQ1) | 0.974 ± 0.076 | 1.13 ± 0.03 |
| H3BMQ0 and related entries (UniProt P49815) | 1 ± 0.027 | 1.04 ± 0.048 |
| K7ER95 and related entries (UniProt Q92918) | 1.06 ± 0.029 | 1.05 ± 0.028 |
| K7ELC7 and related entries (UniProt P61353) | 0.916 ± 0.042 | 0.948 ± 0.056 |
| H9KVB4 and related entries (UniProt O15417) | 1.07 ± 0.11 | 1.05 ± 0.036 |
| H0YE91 and related entries (UniProt Q15782) | 0.895 ± 0.067 | 1.06 ± 0.063 |
| I3L1P8 and related entries (UniProt Q02978) | 0.89 ± 0.042 | 0.893 ± 0.06 |
| J3KP26 and related entries (UniProt Q86W74) | 1.05 ± 0.04 | 0.975 ± 0.074 |
| H0YDS9 and related entries (UniProt P49321) | 0.932 ± 0.032 | 0.934 ± 0.019 |
